# Assay: Plasma GABA concentration by ELISA
# Set-up: species or system human
# Details: mean±SEM
structure (smiles),measurement,setting,value
"NCCCC(=O)O [GABA, gamma-aminobutyric acid]",plasma GABA concentration (endogenous),ND individuals,501 ± 32 nM
same,plasma GABA concentration (endogenous),T1D subjects,649 ± 42 nM
